The target of the test is Kidney and brain protein (KIBRA), endogenous (human (endogenous in HCC1954, TOV-112D, HEK-293T)) (UniProt Q8IX03). The test is described as follows: affinity purification with mass spectrometry; HCC1954 cell lysates incubated with IgG or KIBRA (1:100) antibodies 1 h, protein G beads 2 h at 4 °C, LC-MS/MS.

Protein sequences, listed by entry. Tags and fused reporters are not part of them.
UniProt P35240: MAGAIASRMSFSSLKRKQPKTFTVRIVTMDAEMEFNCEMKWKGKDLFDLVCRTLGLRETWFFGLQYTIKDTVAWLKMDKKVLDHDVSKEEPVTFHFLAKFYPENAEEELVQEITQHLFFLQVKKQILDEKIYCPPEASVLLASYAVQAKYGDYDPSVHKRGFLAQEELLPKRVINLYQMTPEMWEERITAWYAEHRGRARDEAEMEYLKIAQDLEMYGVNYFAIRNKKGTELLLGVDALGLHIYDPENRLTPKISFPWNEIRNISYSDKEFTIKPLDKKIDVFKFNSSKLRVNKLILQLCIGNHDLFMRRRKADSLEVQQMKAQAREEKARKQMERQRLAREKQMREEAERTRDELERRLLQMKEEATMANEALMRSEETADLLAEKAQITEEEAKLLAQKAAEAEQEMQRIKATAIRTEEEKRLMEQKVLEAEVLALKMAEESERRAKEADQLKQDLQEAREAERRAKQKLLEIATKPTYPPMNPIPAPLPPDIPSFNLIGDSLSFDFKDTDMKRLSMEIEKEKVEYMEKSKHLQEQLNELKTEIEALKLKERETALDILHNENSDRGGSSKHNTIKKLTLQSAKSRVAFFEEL

These are yes or no findings as the source states them, for the method shown. In cells and extracts the contact can be indirect. These calls come from enrichment with a bait or labelling near it, and not all partners need be listed.

Turning to “Neurofibromin 2 (NF2), endogenous (from UniProt P35240 1-595)”, the binding result was “binds”.

B1: ZDHHC15, endogenous (enzyme, UniProt Q96MV8 1-337)
chain: MRRGWKMALSGGLRCCRRVLSWVPVLVIVLVVLWSYYAYVFELCLVTVLSPAEKVIYLILYHAIFVFFTWTYWKSIFTLPQQPNQKFHLSYTDKERYENEERPEVQKQMLVDMAKKLPVYTRTGSGAVRFCDRCHLIKPDRCHHCSVCAMCVLKMDHHCPWVNNCIGFSNYKFFLQFLAYSVLYCLYIATTVFSYFIKYWRGELPSVRSKFHVLFLLFVACMFFVSLVILFGYHCWLVSRNKTTLEAFCTPVFTSGPEKNGFNLGFIKNIQQVFGDKKKFWLIPIGSSPGDGHSFPMRSMNESQNPLLANEETWEDNEDDNQDYPEGSSSLAVETET
In the case of B1, the binding entry is given as “binds”.

For the origin of these results see article PMC11809420.
